Patent publication US9393221B2, “Methods and compounds for reducing intracellular lipid storage” (THE GENERAL HOSPITAL CORPORATION, priority 2011, dated 2016)

System: ATGL-KO iPSCs
Test: High throughput iPSC chemical screening, Oil Red O (ORO) lipid accumulation; also: test concentration or dose not given here
Type: cell-based, mouse
Details: normalized ORO level vs DMSO-treated cells; compound present during 7 days differentiation, 96-well; negative = decrease in lipid accumulation

## Br.CN1[C@@H]2CC[C@H]1C[C@@H](OC(=O)C(O)c1ccccc1)C2 (stereo partly drawn) [Homatropine hydrobromide (R,S)]
  Z-score: 0.6653
